# Reference: patent publication US8021570B2, “β-peptide lyotropic liquid crystals and methods of manufacture and use thereof” (Wisconsin Alumni Research Foundation, priority 2006, dated 2011)
# Part of at least one peptide drawing is inferred or uncertain, most often the ends.
# Experiments:
# Assay type in all cases: physicochemical
# [1] = Optical microscopy of aqueous β-peptide solutions between crossed polarizing filters (birefringence = LC phase formation); conditions: aqueous solution
# Text: The inventors used optical microscopy for initial evaluation of aqueous solutions of 1-5. For each β-peptide, aqueous solutions of varying concentration were drawn into microcapillaries and examined between crossed polarizing filters at room temperature (FIGS. 1 and 3). In such experiments, the observation of birefringence is taken as evidence of LC phase formation. […] Increasing β-peptide length by one triad, to generate 3, led to LC behavior at lower concentrations, as shown by the image obtained for a 10 wt % sample (61 mM, FIG. 1C). […]
# β-Peptides were weighed into glass vials, diluted to the desired concentration with water, and left on an oscillatory shaker overnight to ensure dissolution. β-peptide solutions were then drawn into a 2 μL microcapillary (Drummond), and the ends were sealed with a high viscosity vacuum grease (Dow-Corning) Microcapillaries were placed on a glass slide and imaged on an Olympus BX-60 microscope (Tokyo, Japan) in transmission mode between crossed polarizing filters using a digital camera (Olympus C2020 Zoom). […] Temperature was recorded from a thermostat but was not further calibrated.
# Materials and Methods • Materials. […] To assess the upper limit of concentration, a 1 μL droplet of a concentrated peptide solution was allowed to slowly evaporate while being monitored for birefringence. […]
# [2] = Cryo-transmission electron microscopy of β-peptide solutions; conditions: aqueous solutions over the concentration range studied (2 and 8 wt %)
# [3] = Circular dichroism analysis of β-peptide solutions; conditions: up to 2 wt %
smiles,measurement,setting,value
NCCCC[C@@H](CC(N)=O)NC(=O)C[C@H](Cc1ccccc1)NC(=O)[C@H]1CCCC[C@@H]1NC(=O)C[C@H](CCCCN)NC(=O)C[C@H](Cc1ccccc1)NC(=O)[C@H]1CCCC[C@@H]1NC(=O)C[C@H](CCCCN)NC(=O)C[C@H](Cc1ccccc1)NC(=O)[C@H]1CCCC[C@@H]1NC(=O)C[C@@H](N)Cc1ccc(O)cc1 [β-peptide iso-A],LC phase formation / birefringence (result in words),[1],no birefringence was detected
same,structures seen by cryo-TEM,[2],Only globular aggregates
same,CD signature,[3],strong 14-helical signatures
